According to PMC10550928:

B1: SdhA (protein, UniProt P08065 1-586)
chain: MSQSSIIVVGGGLAGLMATIKAAESGMAVKLFSIVPVKRSHSVCAQGGINGAVNTKGEGDSPWEHFDDTVYGGDFLANQPPVKAMCEAAPSIIHLLDRMGVMFNRTPEGLLDFRRFGGTQHHRTAYAGATTGQQLLYALDEQVRRYEVAGLVTKYEGWEFLGAVLDDDRTCRGIVAQNLTNMQIESFRSDAVIMATGGPGIIFGKSTNSMINTGSAASIVYQQGAYYANGEFIQIHPTAIPGDDKLRLMSESARGEGGRVWTYKDGKPWYFLEEKYPAYGNLVPRDIATREIFDVCVNQKLGINGENMVYLDLSHKDPKELDIKLGGIIEIYEKFMGDDPRKLPMKIFPAVHYSMGGLWVDYDQMTNIPGLFAAGECDYSMHGGNRLGANSLLSAIYGGMVAGPNAVKYVNGLESSAEDMSSSLFDAHVKKEEEKWADIMSMDGTENAYVLHKELGEWMTANVTVVRHNDKLLKTDDKIQELMERFKKININDTTKWSNQGAMFTRQFSNMLQLARVITLGAYNRNESRGAHYKPDYPERNDDEWLKTTMAKHVSPYEAPEFEYQDVDVSLITPRKRDYSKKKVAK
B2: OppF (protein, UniProt P24137 1-305)
chain: MTEKLLEIKHLKQHFVTPRGTVKAVDDLSFDIYKGETLGLVGESGCGKSTTGRSIIRLYEATDGEVLFNGENVHGRKSRKKLLEFNRKMQMIFQDPYASLNPRMTVADIIAEGLDIHKLAKTKKERMQRVHELLETVGLNKEHANRYPHEFSGGQRQRIGIARALAVDPEFIIADEPISALDVSIQAQVVNLMKELQKEKGLTYLFIAHDLSMVKYISDRIGVMYFGKLVELAPADELYENPLHPYTKSLLSAIPLPDPDYERNRVRQKYDPSVHQLKDGETMEFREVKPGHFVMCTEAEFKAFS
B3: SwrC (protein, UniProt O31501 1-1052)
chain: MNHVINFVLKNKFAVWLMTIIVTAAGLYAGMNMKQESIPDVNMPYLTISTTYPGATPSQVADEVTKPVEQAVQNLDGVSVVTSTSYENASSVMIEYDYEKDMDKAKTEAAEALENVNLPDDAKDPEISRYSLNSFPILTLSVSSDKDNLQELTKQVEDSLVSKLEGIEGVASVQVSGQQVEEVEFSFKEDKLKEYGLDEDTVKQVIQGSDVTTPLGLYTFGNEEKSVVVSGDIETIKDLKNMRIPTASASSAGSSAASQAGAQSAQAAQSAQAAAQVQQSASTAVPTVKLSDIATIKDVKKAESVSRTNGKDSIGINIVKANDANTVEVADDVKAELKKFKEDHKGFNYSATLDMAEPITQSVDTMLSKAIFGAIFAIVIILLFLRDIKSTLISVVSIPLSLLIALLVLQQLDITLNIMTLGAMTVAIGRVVDDSIVVIENIYRRMRLKDEPLRGKALVREATKEMFKPIMSSTIVTIAVFLPLALVGGQIGELFIPFALTIVFALAASLVISITLVPMLAHSLFKKSLTGAPIKAKEHKPGRLANIYKKVLNWALSHKWITSIIAVLMLLGSLFLVPLIGASYLPSEEEKTMQLTYSPEPGETKKEAENEAEKAEKILLDRKHVDTVQYSLGSGSPLAGGDSNGALFYIKYESDTPDFDKEKDNVLKEIQKQSDRGEWKSQDFSSSGNNNELTYYVYGDSENDIKDTVKDIEKIMKDEKDLKNVNSGLSSTYDEYTFVADQEKLSKLGLTASQISQALMSQTSQEPLTTVKKDGKELDVNIKTEKDEYKSVKDLENKKITSATGQEVKIGDVAKVKEGSTSDTVSKRDGKVYADVTGEVTSDNVTAVSAAIQKKIDKLDHPDNVSIDTGGVSADIADSFTKLGLAMLAAIAIVYLVLVITFGGALAPFAILFSLPFTVIGALVGLYVSGETISLNAMIGMLMLIGIVVTNAIVLIDRVIHKEAEGLSTREALLEAGSTRLRPILMTAIATIGALIPLALGFEGGSQVISKGLGVTVIGGLISSTLLTLLIVPIVYEVLAKFRKKKPGTEEE
B4: FloA (protein, UniProt P54466 1-331)
chain: MDPSTLMILAIVAVAIIVLAVFFTFVPVMLWISALAAGVKISIFTLVGMRLRRVIPNRVVNPLIKAHKAGLNVGTNQLESHYLAGGNVDRVVNALIAAQRANIELTFERCAAIDLAGRDVLEAVQMSVNPKVIETPFIAGVAMDGIEVKAKARITVRANIERLVGGAGEETIVARVGEGIVSTIGSSDNHKKVLENPDMISQTVLGKGLDSGTAFEILSIDIADVDIGKNIGAILQTDQAEADKNIAQAKAEERRAMAVAQEQEMRARVEEMRAKVVEAEAEVPLAMAEALREGNIGVMDYMNIKNIDADTEMRDSFGKLTKDPSDEDRKS

Biological target: T1, MeeY-FLAG (B. subtilis) (UniProt O34997)
T1 sequence: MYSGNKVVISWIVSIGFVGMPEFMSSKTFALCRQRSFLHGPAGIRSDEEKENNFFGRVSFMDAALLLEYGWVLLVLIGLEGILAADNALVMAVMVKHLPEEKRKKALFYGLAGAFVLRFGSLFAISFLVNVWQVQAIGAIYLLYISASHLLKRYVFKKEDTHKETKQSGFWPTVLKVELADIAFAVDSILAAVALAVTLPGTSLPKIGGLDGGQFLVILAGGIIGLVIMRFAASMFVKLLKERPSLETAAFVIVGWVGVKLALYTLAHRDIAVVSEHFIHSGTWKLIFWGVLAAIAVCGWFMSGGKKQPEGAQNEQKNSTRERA
Assay: affinity purification with mass spectrometry; anti-FLAG M2 magnetic beads on lysates (1% Triton X-100) of B. subtilis grown overnight in LB with 50 uM Mn; 30 °C for 3 h; washed with 1X PBS; eluted by heating at 95 °C in 2X Laemmli sample buffer; LC-MS/MS; membrane proteins found in the sample but not in the untagged WT controls

binding, binds:
B1, B2, B3, B4

Biological target: T2, MeeF-FLAG (B. subtilis) (UniProt O34447)
T2 sequence: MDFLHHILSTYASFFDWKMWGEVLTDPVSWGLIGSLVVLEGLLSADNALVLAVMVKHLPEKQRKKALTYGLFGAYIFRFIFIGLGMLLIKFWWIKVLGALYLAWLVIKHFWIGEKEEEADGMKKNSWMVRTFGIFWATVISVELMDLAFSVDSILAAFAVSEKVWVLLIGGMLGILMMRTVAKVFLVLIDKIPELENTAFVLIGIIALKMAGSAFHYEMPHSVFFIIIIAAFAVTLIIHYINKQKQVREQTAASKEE
Assay: as above

binding, binds:
B1, B2, B3, B4

These are yes or no findings as the source states them, for the method shown. Binding seen in cells or lysates may run through a third protein. Here binding means that the protein was enriched with, or labelled near, the bait; the list need not be complete. Where a sequence is shown, tags or fusion partners need not be part of it.
